Measurements from publication PMC12029333.
Results are given in words; binding and its absence hold for the method and conditions named. Binding seen in cells or lysates may run through a third protein. A yes stands for co-enrichment or nearness to the bait. Other partners may have been found. Tags and fused reporters may be left off the sequences shown.

Molecular target: T1, GST-PrkC (Serine/threonine-protein kinase PrkC) (Bacillus subtilis str. 168) (UniProt O34507)
T1 sequence: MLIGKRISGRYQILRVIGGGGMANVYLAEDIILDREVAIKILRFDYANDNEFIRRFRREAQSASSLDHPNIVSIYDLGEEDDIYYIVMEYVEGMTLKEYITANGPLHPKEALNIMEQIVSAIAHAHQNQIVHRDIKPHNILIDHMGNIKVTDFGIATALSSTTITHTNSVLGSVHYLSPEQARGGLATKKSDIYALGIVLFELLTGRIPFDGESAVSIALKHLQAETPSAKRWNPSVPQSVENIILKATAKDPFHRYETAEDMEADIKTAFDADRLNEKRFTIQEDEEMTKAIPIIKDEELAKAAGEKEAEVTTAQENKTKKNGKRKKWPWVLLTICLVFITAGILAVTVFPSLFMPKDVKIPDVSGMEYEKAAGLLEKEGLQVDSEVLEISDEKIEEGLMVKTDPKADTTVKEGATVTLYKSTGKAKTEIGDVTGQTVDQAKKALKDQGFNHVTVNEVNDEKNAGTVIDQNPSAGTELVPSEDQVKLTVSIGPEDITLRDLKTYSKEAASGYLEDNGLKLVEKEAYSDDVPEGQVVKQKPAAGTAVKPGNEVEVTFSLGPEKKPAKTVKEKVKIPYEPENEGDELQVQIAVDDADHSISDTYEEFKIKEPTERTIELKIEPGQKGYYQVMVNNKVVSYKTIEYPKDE
Test: affinity purification with mass spectrometry; GST-PrkC on glutathione resin incubated with B. subtilis spore lysate at 4 °C; resin washed; bound proteins eluted with 20 mM reduced glutathione; eluate digested with trypsin and analysed by LC-MS/MS; hits filtered at 1% FDR, >=2 unique peptides; only the target purified

binding, binds:
Polyketide synthase PksM (from UniProt P40872 1-4262), Polyketide synthase PksJ (from UniProt P40806 1-5043), Surfactin synthase subunit 1 (from UniProt P27206 1-3587), Chaperone protein DnaK (from UniProt P17820 1-611), Glucose 1-dehydrogenase (from UniProt P12310 1-261), Uncharacterized protein YqbO (from UniProt P45931 1-1585), Polyketide synthase PksL (from UniProt Q05470 1-4538), ATP synthase subunit alpha (from UniProt P37808 1-502), Plipastatin synthase subunit B (from UniProt P39846 1-2560), FMN-dependent NADPH-azoreductase (from UniProt O07529 1-174), Heme-based aerotactic transducer HemAT (from UniProt O07621 1-432), L-lactate dehydrogenase (from UniProt P13714 1-320), Elongation factor Tu (from UniProt P33166 1-396)
